Results reported in doi:10.1101/2024.02.15.580437.
No constants are given. Whether binding was seen depends on the method and setting. Binding seen in cells or lysates may run through a third protein. Here binding means that the protein was enriched with, or labelled near, the bait; the list need not be complete. Tags and fused reporters may be left off the sequences shown.

Chains of the proteins cited; added tags and fusions are not shown. Lines headed by an entry give the natural chain unless they say otherwise; changes in a name come on top.
UniProt P28070: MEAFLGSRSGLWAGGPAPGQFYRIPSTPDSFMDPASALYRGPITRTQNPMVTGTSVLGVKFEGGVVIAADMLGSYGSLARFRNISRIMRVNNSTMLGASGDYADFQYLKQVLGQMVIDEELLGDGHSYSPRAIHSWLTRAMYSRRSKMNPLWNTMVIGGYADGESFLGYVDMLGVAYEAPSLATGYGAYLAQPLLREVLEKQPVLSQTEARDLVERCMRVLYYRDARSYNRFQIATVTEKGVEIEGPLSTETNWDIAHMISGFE
UniProt P46379: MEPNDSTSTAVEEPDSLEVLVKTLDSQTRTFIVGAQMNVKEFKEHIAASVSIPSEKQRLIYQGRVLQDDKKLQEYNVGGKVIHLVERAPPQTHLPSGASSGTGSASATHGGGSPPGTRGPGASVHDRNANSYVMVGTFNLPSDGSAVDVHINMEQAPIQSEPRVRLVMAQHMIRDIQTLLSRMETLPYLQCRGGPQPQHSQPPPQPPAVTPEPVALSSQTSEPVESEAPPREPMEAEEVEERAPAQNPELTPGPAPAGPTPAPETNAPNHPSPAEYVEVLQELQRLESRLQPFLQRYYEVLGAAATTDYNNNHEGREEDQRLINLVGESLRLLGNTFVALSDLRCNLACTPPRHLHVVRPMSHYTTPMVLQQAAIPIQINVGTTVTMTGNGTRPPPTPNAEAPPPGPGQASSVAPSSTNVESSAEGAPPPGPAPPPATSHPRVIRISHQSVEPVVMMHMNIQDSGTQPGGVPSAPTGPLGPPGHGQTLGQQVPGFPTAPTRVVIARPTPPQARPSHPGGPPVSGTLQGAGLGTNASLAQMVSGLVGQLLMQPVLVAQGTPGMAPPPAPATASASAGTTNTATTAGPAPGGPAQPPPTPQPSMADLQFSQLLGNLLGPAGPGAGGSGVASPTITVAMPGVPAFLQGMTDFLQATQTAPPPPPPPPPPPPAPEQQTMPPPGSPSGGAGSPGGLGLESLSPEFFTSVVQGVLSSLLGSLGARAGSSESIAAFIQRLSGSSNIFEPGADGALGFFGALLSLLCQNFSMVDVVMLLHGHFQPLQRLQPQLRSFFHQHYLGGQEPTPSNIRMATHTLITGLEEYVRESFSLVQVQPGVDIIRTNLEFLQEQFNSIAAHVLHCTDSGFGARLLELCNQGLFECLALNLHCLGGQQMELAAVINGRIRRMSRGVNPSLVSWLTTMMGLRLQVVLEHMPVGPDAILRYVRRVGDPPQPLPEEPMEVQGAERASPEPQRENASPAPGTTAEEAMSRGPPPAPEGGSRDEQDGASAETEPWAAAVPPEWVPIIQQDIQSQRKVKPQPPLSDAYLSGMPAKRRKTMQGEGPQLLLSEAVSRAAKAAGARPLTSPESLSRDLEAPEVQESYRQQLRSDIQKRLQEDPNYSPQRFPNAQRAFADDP
UniProt P49721: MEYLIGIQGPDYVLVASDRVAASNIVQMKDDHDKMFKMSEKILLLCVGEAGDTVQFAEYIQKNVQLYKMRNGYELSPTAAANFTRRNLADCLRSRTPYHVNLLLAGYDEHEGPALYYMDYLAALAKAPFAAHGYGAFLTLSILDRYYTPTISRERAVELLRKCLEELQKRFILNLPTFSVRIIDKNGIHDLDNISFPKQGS
UniProt Q9NR09: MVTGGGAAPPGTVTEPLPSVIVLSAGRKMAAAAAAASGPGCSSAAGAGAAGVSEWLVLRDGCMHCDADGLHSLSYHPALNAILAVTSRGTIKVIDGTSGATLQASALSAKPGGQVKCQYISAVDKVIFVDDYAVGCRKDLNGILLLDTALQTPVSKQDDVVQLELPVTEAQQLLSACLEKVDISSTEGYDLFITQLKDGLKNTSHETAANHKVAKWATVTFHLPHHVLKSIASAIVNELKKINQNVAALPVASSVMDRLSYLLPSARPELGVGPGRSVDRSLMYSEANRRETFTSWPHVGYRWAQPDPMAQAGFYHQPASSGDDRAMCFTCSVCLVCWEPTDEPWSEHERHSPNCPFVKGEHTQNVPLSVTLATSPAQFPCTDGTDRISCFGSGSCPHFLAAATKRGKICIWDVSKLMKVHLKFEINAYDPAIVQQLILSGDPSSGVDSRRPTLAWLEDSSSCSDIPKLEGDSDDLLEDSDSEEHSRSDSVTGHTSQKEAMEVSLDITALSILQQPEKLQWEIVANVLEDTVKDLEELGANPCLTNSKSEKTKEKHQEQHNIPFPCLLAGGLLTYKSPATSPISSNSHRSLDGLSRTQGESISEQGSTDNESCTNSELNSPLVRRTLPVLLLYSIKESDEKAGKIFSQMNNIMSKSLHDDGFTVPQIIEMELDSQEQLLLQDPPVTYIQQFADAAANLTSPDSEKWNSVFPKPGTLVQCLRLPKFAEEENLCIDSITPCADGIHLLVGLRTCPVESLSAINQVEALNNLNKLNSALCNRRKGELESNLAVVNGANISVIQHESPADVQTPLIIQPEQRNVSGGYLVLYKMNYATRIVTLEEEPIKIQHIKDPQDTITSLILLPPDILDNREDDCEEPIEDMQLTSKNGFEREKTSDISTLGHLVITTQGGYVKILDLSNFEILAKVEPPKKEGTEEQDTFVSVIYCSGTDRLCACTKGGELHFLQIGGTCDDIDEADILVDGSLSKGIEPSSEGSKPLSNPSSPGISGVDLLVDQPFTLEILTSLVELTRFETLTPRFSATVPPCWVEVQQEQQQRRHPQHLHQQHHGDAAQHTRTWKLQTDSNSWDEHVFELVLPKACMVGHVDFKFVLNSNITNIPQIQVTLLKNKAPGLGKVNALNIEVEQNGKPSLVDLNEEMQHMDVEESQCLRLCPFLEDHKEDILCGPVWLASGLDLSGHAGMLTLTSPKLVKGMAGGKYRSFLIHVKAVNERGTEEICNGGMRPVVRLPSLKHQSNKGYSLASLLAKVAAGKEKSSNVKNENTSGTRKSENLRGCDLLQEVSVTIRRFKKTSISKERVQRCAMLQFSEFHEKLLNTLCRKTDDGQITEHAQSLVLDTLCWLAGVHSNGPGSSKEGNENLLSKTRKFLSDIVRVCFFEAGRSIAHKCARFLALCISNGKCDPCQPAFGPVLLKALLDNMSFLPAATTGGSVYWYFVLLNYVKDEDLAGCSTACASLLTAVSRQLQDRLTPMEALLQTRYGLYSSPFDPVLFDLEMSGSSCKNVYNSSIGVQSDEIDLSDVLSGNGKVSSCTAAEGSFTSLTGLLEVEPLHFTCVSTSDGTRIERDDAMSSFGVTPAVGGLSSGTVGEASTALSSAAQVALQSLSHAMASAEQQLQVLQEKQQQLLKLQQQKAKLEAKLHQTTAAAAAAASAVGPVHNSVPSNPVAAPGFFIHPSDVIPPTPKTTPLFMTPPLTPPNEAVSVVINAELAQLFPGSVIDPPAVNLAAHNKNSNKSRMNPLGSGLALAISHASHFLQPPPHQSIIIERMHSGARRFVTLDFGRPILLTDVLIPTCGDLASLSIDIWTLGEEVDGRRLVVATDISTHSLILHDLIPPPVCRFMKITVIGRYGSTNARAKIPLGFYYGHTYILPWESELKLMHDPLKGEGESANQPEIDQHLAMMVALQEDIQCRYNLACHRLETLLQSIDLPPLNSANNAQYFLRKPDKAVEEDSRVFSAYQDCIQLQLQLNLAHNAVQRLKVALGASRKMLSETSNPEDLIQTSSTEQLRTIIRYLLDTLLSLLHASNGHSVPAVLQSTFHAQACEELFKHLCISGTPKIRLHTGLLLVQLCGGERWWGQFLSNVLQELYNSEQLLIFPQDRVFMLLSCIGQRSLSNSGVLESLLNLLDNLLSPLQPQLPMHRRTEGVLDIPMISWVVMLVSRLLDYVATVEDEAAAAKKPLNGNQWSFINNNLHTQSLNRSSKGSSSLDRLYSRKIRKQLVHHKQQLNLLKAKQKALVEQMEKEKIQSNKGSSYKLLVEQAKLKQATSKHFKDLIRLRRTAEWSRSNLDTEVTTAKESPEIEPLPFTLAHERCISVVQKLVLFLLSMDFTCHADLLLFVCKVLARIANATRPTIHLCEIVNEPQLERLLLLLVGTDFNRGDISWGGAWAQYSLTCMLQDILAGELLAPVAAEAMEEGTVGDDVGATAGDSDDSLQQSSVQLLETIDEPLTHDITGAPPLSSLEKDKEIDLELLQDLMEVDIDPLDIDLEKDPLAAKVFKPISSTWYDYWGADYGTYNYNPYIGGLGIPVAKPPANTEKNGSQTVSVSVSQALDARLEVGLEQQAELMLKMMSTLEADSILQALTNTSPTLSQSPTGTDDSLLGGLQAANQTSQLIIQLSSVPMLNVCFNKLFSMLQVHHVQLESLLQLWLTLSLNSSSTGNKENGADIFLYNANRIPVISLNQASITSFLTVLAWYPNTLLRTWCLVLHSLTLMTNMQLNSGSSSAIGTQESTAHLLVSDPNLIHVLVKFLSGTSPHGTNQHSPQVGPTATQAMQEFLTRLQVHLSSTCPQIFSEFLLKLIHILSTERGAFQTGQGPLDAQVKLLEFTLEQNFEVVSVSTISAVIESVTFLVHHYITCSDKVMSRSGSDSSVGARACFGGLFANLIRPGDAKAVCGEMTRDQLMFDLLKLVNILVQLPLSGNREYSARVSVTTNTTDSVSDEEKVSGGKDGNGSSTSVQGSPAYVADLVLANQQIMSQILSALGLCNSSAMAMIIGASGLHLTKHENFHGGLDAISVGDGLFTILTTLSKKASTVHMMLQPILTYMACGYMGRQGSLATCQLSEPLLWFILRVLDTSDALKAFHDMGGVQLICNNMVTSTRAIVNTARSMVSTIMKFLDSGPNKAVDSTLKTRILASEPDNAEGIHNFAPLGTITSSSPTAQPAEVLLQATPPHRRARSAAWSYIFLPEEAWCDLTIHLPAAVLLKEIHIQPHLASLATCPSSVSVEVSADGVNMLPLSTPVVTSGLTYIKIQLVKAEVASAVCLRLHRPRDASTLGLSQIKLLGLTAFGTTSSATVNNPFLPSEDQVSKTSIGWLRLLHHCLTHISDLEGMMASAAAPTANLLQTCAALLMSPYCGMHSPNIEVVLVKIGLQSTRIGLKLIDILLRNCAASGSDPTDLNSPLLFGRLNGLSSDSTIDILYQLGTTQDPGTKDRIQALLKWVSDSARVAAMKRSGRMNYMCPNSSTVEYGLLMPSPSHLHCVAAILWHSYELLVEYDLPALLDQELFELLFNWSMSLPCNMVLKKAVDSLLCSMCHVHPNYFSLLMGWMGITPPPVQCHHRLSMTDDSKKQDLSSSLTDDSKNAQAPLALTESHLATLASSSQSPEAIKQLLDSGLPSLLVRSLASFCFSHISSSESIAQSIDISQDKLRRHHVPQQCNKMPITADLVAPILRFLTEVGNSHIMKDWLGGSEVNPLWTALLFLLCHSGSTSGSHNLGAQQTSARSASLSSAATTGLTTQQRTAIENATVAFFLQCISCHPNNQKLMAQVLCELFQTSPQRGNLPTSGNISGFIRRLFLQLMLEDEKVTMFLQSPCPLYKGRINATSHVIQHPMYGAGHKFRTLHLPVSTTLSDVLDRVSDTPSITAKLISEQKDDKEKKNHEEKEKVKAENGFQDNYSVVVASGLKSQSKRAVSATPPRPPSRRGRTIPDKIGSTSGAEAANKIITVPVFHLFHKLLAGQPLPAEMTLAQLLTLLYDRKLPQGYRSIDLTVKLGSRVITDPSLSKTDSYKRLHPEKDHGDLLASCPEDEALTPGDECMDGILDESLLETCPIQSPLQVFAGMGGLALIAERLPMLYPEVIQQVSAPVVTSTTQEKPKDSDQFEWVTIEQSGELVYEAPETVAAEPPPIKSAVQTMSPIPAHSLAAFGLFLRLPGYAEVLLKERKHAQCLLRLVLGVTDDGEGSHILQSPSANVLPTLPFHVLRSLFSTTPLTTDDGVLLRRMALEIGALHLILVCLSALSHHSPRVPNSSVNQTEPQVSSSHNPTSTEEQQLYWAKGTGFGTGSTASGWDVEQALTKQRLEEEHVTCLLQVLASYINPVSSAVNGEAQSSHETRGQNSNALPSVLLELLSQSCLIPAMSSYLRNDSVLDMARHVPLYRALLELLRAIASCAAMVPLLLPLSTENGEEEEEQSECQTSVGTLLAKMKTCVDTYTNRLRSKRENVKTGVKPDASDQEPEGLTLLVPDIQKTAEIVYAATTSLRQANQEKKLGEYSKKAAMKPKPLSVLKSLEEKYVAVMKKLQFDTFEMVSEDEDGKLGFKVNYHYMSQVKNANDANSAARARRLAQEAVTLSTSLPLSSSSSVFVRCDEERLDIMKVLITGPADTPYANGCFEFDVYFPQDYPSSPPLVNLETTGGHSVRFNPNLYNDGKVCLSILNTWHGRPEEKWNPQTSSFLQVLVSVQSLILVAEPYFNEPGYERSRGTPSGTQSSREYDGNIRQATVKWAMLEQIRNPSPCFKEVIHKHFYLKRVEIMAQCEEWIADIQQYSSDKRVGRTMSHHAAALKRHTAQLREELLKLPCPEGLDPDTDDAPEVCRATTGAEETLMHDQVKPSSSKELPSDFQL

T1: TPMT A80P-BirA*-FLAG (human) (UniProt P51580)
T1 sequence: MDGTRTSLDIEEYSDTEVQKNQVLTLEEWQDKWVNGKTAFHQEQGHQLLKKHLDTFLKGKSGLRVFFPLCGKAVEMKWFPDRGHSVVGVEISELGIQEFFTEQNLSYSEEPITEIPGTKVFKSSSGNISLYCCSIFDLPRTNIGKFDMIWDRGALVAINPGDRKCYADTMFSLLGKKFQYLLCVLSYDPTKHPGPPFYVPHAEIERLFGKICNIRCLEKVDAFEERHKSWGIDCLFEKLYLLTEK

B1: FKBP5 (protein, UniProt Q13451 1-457)
chain: MTTDEGAKNNEESPTATVAEQGEDITSKKDRGVLKIVKRVGNGEETPMIGDKVYVHYKGKLSNGKKFDSSHDRNEPFVFSLGKGQVIKAWDIGVATMKKGEICHLLCKPEYAYGSAGSLPKIPSNATLFFEIELLDFKGEDLFEDGGIIRRTKRKGEGYSNPNEGATVEIHLEGRCGGRMFDCRDVAFTVGEGEDHDIPIGIDKALEKMQREEQCILYLGPRYGFGEAGKPKFGIEPNAELIYEVTLKSFEKAKESWEMDTKEKLEQAAIVKEKGTVYFKGGKYMQAVIQYGKIVSWLEMEYGLSEKESKASESFLLAAFLNLAMCYLKLREYTKAVECCDKALGLDSANEKGLYRRGEAQLLMNEFESAKGDFEKVLEVNPQNKAARLQISMCQKKAKEHNERDRRIYANMFKKFAEQDAKEEANKAMGKKTSEGVTNEKGTDSQAMEEEKPEGHV
B2: SGT1 (protein, UniProt Q9Y2Z0 1-365)
chain: MAAAAAGTATSQRFFQSFSDALIDEDPQAALEELTKALEQKPDDAQYYCQRAYCHILLGNYCVAVADAKKSLELNPNNSTAMLRKGICEYHEKNYAAALETFTEGQKLDIETGFHRVGQAGLQLLTSSDPPALDSQSAGITGADANFSVWIKRCQEAQNGSESEVWTHQSKIKYDWYQTESQVVITLMIKNVQKNDVNVEFSEKELSALVKLPSGEDYNLKLELLHPIIPEQSTFKVLSTKIEIKLKKPEAVRWEKLEGQGDVPTPKQFVADVKNLYPSSSPYTRNWDKLVGEIKEEEKNEKLEGDAALNRLFQQIYSDGSDEVKRAMNKSFMESGGTVLSTNWSDVGKRKVEINPPDDMEWKKY
B3: FKBP4 (protein, UniProt Q02790 1-459)
chain: MTAEEMKATESGAQSAPLPMEGVDISPKQDEGVLKVIKREGTGTEMPMIGDRVFVHYTGWLLDGTKFDSSLDRKDKFSFDLGKGEVIKAWDIAIATMKVGEVCHITCKPEYAYGSAGSPPKIPPNATLVFEVELFEFKGEDLTEEEDGGIIRRIQTRGEGYAKPNEGAIVEVALEGYYKDKLFDQRELRFEIGEGENLDLPYGLERAIQRMEKGEHSIVYLKPSYAFGSVGKEKFQIPPNAELKYELHLKSFEKAKESWEMNSEEKLEQSTIVKERGTVYFKEGKYKQALLQYKKIVSWLEYESSFSNEEAQKAQALRLASHLNLAMCHLKLQAFSAAIESCNKALELDSNNEKGLFRRGEAHLAVNDFELARADFQKVLQLYPNNKAAKTQLAVCQQRIRRQLAREKKLYANMFERLAEEENKAKAEASSGDHPTDTEMKEEQKSNTAGSQSQVETEA

target: T1, TPMT A80P-BirA*-FLAG (human); experiment: proximity labelling

Row | binding | Molecule
1 | binds | B1
2 | binds | B2
3 | binds | B3

target: T1, TPMT A80P-BirA*-FLAG (human); experiment: proximity labelling; remark: another data set of the same source

Row | binding | Molecule
4 | binds | PSMB4 (from UniProt P28070)
5 | binds | PSMA2 (from UniProt P25787 1-234)
6 | binds | UBR5 (from UniProt O95071 1-2799) (enzyme)
7 | binds | BAG6 (from UniProt P46379 1-1132)
8 | binds | PSMB2 (from UniProt P49721 1-201)
9 | binds | BIRC6 (from UniProt Q9NR09 1-4857) (enzyme)
